# Source: publication PMC3698205
# Amino acid sequences for entries named in this document (tags omitted). Residues count along the entry.
# UniProt Q9Y262: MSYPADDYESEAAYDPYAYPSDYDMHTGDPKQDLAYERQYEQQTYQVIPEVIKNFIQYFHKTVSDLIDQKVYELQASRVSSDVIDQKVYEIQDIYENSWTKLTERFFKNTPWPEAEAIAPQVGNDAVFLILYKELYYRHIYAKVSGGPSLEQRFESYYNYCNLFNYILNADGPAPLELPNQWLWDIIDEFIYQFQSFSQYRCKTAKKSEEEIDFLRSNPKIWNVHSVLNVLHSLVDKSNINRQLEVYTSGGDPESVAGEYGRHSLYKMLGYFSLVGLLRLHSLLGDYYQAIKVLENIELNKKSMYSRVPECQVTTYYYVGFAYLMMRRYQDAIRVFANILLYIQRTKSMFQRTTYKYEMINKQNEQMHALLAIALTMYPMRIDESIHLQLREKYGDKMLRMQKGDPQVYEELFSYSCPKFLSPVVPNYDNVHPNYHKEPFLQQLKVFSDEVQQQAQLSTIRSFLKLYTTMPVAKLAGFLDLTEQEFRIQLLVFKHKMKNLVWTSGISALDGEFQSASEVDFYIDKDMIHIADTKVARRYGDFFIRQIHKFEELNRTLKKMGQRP
# UniProt P03314, residues 2507-3411: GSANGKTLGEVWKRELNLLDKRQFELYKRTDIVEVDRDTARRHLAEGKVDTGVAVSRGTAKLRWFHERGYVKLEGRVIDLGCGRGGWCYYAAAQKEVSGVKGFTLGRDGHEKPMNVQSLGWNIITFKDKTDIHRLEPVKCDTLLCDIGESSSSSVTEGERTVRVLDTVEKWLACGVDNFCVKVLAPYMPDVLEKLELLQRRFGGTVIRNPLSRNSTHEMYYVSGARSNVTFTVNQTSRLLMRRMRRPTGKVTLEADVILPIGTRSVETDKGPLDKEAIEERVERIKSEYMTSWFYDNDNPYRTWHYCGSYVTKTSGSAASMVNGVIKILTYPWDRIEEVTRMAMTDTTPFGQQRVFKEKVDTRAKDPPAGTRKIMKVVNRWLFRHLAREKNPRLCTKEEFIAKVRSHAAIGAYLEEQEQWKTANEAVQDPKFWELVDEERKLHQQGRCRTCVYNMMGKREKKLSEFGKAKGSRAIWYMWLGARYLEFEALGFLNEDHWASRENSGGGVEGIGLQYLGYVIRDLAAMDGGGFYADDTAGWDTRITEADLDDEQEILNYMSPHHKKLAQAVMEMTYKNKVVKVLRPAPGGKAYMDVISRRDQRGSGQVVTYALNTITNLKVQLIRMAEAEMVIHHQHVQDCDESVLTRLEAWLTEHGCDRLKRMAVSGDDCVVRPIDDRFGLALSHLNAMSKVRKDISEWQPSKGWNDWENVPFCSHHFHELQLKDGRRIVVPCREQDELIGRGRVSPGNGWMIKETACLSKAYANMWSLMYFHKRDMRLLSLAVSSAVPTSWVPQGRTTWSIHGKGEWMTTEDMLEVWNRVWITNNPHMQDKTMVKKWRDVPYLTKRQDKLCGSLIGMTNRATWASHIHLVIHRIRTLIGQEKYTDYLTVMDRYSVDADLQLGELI
# No constants are given. Whether binding was seen depends on the method and setting. In cells and extracts the contact can be indirect. Some results given as binding are weak or reduced against the parent protein; the word gives no strength.
# Molecular target: Flag-tagged eIF3L (pSGFlag-eIF3L) in Vero cells (human) (UniProt Q9Y262)
# Experiment: co-IP
substance,measurement,value
YFV NS5 protein from infected cells (from UniProt P03314),binding,binds
